Measured values as given in the RepoRT retention time repository (doi:10.1021/acs.analchem.1c00972).

Tests used:
[1] = RP, Waters ACQUITY UPLC BEH C18, 100 × 1 mm, 1.7 µm, 50 °C, 0.3 mL/min, estimated dead time 0.17 min; A: water + 10 mM ammonium bicarbonate; B: 10% water + 90% methanol + 10 mM ammonium bicarbonate; gradient (min/%B) 0/0 15/100 21/100 22/0 30/0; settings: stereoisomer not certain
[2] = RP, Waters ACQUITY UPLC BEH C18, 100 × 1 mm, 1.7 µm, 50 °C, 0.3 mL/min, estimated dead time 0.17 min; A: water + 0.1% formic acid + 20 mM ammonium formate; B: methanol + 0.1% formic acid + 20 mM ammonium formate; gradient (min/%B) 0/0 15/100 21/100 22/0 30/0; settings: stereoisomer not certain

LC retention time [1]: 14.4 min | LC retention time [2]: 14.1 min
SMILES: O=C(c1ccccc1)c1ccccc1 [Benzophenone]
